From paper PMC4489036
Results are given in words; binding and its absence hold for the method and conditions named. Binding seen in cells or lysates may run through a third protein.

Sequences of proteins named here, by UniProt entry; tags and fusion partners are left off. A change or cut given only in a name is not applied to a line headed by its entry. A line that says so, or that is headed by a name, gives the form on record, which may keep a tag or linker.
UniProt Q9N1U3: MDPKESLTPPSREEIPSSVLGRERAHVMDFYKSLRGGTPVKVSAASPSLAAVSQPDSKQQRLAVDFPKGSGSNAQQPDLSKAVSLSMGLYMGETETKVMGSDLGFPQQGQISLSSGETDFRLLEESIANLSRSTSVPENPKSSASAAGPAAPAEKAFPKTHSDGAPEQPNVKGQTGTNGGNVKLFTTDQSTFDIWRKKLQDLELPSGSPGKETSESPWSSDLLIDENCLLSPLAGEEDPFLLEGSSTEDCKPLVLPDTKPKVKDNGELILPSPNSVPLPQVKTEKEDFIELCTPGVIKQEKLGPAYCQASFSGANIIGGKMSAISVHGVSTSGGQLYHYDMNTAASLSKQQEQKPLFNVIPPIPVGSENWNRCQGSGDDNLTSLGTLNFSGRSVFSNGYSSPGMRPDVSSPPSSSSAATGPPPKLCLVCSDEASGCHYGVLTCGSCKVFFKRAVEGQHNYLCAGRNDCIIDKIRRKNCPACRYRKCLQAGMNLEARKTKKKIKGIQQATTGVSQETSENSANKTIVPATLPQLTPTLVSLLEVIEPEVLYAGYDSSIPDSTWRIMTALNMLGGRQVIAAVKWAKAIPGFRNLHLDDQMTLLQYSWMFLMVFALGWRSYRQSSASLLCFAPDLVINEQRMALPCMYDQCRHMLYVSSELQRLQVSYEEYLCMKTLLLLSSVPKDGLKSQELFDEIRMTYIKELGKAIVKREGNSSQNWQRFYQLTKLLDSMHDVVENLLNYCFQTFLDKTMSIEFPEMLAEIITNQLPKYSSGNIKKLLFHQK
UniProt Q9GKL7: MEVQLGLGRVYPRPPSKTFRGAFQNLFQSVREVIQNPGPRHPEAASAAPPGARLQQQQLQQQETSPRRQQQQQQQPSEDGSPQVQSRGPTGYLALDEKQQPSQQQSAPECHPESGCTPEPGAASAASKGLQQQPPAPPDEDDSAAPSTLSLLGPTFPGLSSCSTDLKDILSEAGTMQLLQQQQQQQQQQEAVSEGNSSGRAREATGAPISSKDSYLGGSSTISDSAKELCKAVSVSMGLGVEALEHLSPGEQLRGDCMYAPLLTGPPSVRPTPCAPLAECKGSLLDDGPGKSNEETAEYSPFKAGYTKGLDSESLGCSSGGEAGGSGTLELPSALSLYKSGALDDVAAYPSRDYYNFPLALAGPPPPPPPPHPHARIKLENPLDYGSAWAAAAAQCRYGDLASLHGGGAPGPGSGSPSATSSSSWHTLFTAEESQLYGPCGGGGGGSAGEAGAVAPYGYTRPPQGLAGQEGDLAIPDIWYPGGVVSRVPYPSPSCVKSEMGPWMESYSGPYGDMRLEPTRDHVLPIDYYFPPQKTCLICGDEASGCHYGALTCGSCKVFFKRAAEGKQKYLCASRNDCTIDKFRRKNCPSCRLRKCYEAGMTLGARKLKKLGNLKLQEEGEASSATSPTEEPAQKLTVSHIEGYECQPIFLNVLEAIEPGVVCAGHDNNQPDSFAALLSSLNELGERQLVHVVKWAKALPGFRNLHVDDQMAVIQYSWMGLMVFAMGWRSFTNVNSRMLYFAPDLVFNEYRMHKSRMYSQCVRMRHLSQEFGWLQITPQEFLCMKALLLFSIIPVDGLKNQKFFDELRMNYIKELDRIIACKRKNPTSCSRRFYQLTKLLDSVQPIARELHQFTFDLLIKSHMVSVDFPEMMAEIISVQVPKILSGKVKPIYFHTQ
androgen receptor (Q9GKL7, form named): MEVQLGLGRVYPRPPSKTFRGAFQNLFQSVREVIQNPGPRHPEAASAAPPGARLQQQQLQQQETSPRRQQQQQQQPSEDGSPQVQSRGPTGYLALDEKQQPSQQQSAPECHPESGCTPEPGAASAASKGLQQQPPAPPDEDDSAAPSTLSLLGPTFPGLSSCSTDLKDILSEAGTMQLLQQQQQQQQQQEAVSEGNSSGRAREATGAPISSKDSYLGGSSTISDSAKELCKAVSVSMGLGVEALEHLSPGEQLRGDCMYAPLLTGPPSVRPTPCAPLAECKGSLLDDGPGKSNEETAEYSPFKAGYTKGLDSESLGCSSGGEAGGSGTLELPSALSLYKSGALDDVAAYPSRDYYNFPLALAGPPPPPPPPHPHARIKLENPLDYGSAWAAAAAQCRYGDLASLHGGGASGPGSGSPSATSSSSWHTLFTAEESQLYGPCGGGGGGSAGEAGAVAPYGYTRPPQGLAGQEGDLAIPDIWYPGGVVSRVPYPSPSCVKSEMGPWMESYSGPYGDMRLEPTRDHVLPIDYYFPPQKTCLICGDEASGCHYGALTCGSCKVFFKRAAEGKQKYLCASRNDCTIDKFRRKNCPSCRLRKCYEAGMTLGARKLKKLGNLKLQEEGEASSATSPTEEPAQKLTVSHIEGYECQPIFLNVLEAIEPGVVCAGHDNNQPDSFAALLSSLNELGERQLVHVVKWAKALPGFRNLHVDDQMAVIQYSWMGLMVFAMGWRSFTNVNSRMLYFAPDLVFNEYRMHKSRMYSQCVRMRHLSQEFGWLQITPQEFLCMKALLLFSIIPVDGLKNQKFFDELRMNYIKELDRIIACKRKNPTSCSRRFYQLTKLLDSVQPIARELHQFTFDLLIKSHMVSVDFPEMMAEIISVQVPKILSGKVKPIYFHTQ

Experiments:
[1] = biological target: glucocorticoid receptor (pig (endogenous in piglet liver)) (UniProt Q9N1U3); assay: co-IP; 500 ug total protein of piglet liver (pooled samples of 5 LW and of 6 EHL pigs), precleared with protein A/G plus beads; 4 ug C/EBPβ or GR antibody overnight at 4 °C; agarose beads 2 h at 4 °C; Western blot for GR or AR
[2] = biological target: T1, CCAAT/enhancer binding protein β (pig (endogenous in piglet liver)) (UniProt E5Q8C6); assay: as above
T1 sequence: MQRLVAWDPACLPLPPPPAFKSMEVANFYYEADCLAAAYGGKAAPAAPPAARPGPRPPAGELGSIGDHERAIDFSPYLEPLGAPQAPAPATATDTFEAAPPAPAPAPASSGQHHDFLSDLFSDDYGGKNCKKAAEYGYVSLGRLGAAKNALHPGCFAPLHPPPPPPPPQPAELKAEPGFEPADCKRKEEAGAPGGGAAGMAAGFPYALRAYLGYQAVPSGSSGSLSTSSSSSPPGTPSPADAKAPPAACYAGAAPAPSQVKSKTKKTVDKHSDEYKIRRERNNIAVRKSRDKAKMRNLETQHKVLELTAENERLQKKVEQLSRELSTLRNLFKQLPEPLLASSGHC

With “androgen receptor (from UniProt Q9GKL7 1-896)” the binding [1] was “no binding”.
In the case of “glucocorticoid receptor (from UniProt Q9N1U3 1-782)”, the binding [2] is reported as “no binding”.
